Measured values from PMC6690549.

The chains behind the UniProt entries cited, without tags or fusion partners. Where a name states a change or a piece, a line headed by the entry shows the natural chain unless it says otherwise.
UniProt Q8TBK6: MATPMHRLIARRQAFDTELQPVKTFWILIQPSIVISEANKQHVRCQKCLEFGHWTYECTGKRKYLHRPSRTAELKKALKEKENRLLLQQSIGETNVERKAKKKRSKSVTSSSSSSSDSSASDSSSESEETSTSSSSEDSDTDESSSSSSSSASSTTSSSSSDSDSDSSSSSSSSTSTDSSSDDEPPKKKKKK

Experiments:
Assay in all cases: co-IP; A2058 cells transiently co-transfected with one FLAG-tagged and one non-tagged expression vector, harvested after 24 h; lysis buffer 100 mM Tris HCl pH 7.5, 300 mM NaCl, 2 mM EDTA, 2% Triton X-100; anti-FLAG M2 affinity gel (FLAG Immunoprecipitation Kit); western blotting with anti-PITX1 and anti-ZCCHC10 antibodies; control: empty FLAG vector
[1] = biological target: FLAG-tagged ZCCHC10 in which the CCHC domain was deleted (human) (UniProt Q8TBK6)
[2] = biological target: FLAG-PITX1 homeodomain 2 (half of the C-terminal side of the homeodomain deleted) (human) (UniProt P78337)
[3] = biological target: FLAG-PITX1 deleted OAR (OAR domain deleted) (human) (UniProt P78337)

| binding [1] | binding [2] | binding [3] | Substance |
| --- | --- | --- | --- |
| no binding |  |  | PITX1, wild type, non-tagged expression vector (from UniProt P78337 1-314) |
|  | no binding | binds | ZCCHC10, wild type, non-tagged expression vector (from UniProt Q8TBK6 1-192) |

No constants are given. Whether binding was seen depends on the method and setting. Binding seen in cells or lysates may run through a third protein. For part of these data: Binding can be weak; no strength is given.
